# Literature values in patent US20040072765A1, “Cardiovascular and bone treatment using isoflavones” (Novogen Research Pty Ltd., priority 1999, published 2004).
# At least one structure is not confirmed: it was looked up by name or label, or the drawing left a doubt.
# Conditions: post-menopausal women, estrogen replacement therapy
smiles,measurement,value
"C[C@]12CC[C@@H]3c4ccc(O)cc4CC[C@H]3[C@@H]1CC[C@@H]2O [Estradiol, estradiol]",effect on LDL levels,little or no effect
same,increase in HDL levels,15-30%
